Measured data: PubChem BioAssay AID1508597 (Cure First, 2020)
Assay: 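Survival screen with siRNA in ovarian cancer cells derived from patients, with or without rucaparib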 (primary screen). System: human ovarian carcinoma lines grown from tumours: OCI-P5x (papillary serous) and OCI-C5x (clear cell). Reagents: siRNA pool against human genes, 1.25 pmol siRNA per well. Time to read-out: 72 h or 96 h, depending on the cell culture. Conditions: rucaparib 20 µM (about IC30) or vehicle, present until read-out. Rucaparib or vehicle: Rucaparib. Cell line: OCI-C5x (clear cell). Read-out: 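Luminescent ATP-based viability assay read 72 or 96 h after transfection, depending on culture, given as normalised percent viability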. Scale: viability, normalised: higher = more viable cells remaining. Active means: 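Active when normalised viability falls below 80 percent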. Meaning of the calls: active = viability under 80%; inactive = viability 80% or more.
Shown is a random part of the about 2,100 reagents, in one setting of the screen. 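Calls flag viability under 80% in either arm, not effects specific to rucaparib; the reference for percent is not stated.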 Unmarked entries are inactive. Some reagents were tested in more than one well and are listed for each. Reagent sequences are not shown. Not stated in the record: the 100% reference.

| gene symbol | technical replicate | viability, normalised (%) |
| --- | --- | --- |
| ARID4B (AT-rich interaction domain 4B) | 1 | 50.5 (active) |
| ARID4B (AT-rich interaction domain 4B) | 2 | 57.9 (active) |
| ARID4B (AT-rich interaction domain 4B) | 3 | 33.3 (active) |
| KLF1 (KLF transcription factor 1) | 1 | 76.2 (active) |
| KLF1 (KLF transcription factor 1) | 2 | 57.1 (active) |
| KLF1 (KLF transcription factor 1) | 3 | 53.5 (active) |
| PLCG2 (phospholipase C gamma 2) | 1 | 68.3 (active) |
| PLCG2 (phospholipase C gamma 2) | 2 | 68.2 (active) |
| PLCG2 (phospholipase C gamma 2) | 3 | 47.7 (active) |
| IL11 (interleukin 11) | 1 | 31 (active) |
| IL11 (interleukin 11) | 2 | 14.5 (active) |
| IL11 (interleukin 11) | 3 | 25.8 (active) |
| CDIPT (CDP-diacylglycerol--inositol 3-phosphatidyltransferase) | 1 | 53.5 (active) |
| CDIPT (CDP-diacylglycerol--inositol 3-phosphatidyltransferase) | 2 | 54.2 (active) |
| CDIPT (CDP-diacylglycerol--inositol 3-phosphatidyltransferase) | 3 | 47.7 (active) |
| KIT (KIT proto-oncogene, receptor tyrosine kinase) | 1 | 42.1 (active) |
| KIT (KIT proto-oncogene, receptor tyrosine kinase) | 2 | 55.6 (active) |
| KIT (KIT proto-oncogene, receptor tyrosine kinase) | 3 | 49.7 (active) |
| SKIC2 (SKI2 subunit of superkiller complex) | 1 | 55.4 (active) |
| SKIC2 (SKI2 subunit of superkiller complex) | 2 | 39.8 (active) |
| SKIC2 (SKI2 subunit of superkiller complex) | 3 | 41.1 (active) |
| ITPKA (inositol-trisphosphate 3-kinase A) | 1 | 53 (active) |
| ITPKA (inositol-trisphosphate 3-kinase A) | 2 | 38.7 (active) |
| ITPKA (inositol-trisphosphate 3-kinase A) | 3 | 54.4 (active) |
| SUPT16H (SPT16 homolog, facilitates chromatin remodeling subunit) | 1 | 74.4 (active) |
| SUPT16H (SPT16 homolog, facilitates chromatin remodeling subunit) | 1 | 53.2 (active) |
| SUPT16H (SPT16 homolog, facilitates chromatin remodeling subunit) | 2 | 74.1 (active) |
| SUPT16H (SPT16 homolog, facilitates chromatin remodeling subunit) | 2 | 47.6 (active) |
| SUPT16H (SPT16 homolog, facilitates chromatin remodeling subunit) | 3 | 72.4 (active) |
| SUPT16H (SPT16 homolog, facilitates chromatin remodeling subunit) | 3 | 42.8 (active) |
| RASGRF1 (Ras protein specific guanine nucleotide releasing factor 1) | 1 | 74.4 (active) |
| RASGRF1 (Ras protein specific guanine nucleotide releasing factor 1) | 2 | 52.8 (active) |
| RASGRF1 (Ras protein specific guanine nucleotide releasing factor 1) | 3 | 60.4 (active) |
| H4C15 (H4 clustered histone 15) | 1 | 45.7 (active) |
| H4C15 (H4 clustered histone 15) | 2 | 35.4 (active) |
| H4C15 (H4 clustered histone 15) | 3 | 48.6 (active) |
| CNOT12 (CCR4-NOT transcription complex subunit 12) | 1 | 48.3 (active) |
| CNOT12 (CCR4-NOT transcription complex subunit 12) | 2 | 50.1 (active) |
| CNOT12 (CCR4-NOT transcription complex subunit 12) | 3 | 33.7 (active) |

An excerpt of the results above, for reference:
| gene symbol | technical replicate | viability, normalised (%) |
| --- | --- | --- |
| KIT (KIT proto-oncogene, receptor tyrosine kinase) | 3 | 49.7 (active) |
| SKIC2 (SKI2 subunit of superkiller complex) | 1 | 55.4 (active) |
| SKIC2 (SKI2 subunit of superkiller complex) | 2 | 39.8 (active) |
